Laboratory results from PubChem BioAssay AID493014 (National Center for Advancing Translational Sciences (NCATS), 2011).
About 170 (0.05%) of roughly 340,000 compounds were called active. This list was built around the results that the source calls inconclusive (neither active nor inactive); the mix of calls is not that of the screen. Calls come from the whole dose curve; as a rule, active = well fitted inhibition curve with a large enough effect in the signal ratio, with a control signal flat (not every such curve was filed as active); inconclusive = small, poorly fitted or top-dose-only effect, or effect the other way, or a change in a side signal; inactive = flat fitted curve, though single readings scatter; the % refers to the signal ratio. A potency beside an inconclusive call is a rough fit, not a confirmed value.

test: qHTS Assay to Find Inhibitors of Chronic Active B-Cell Receptor Signaling; details: ABC-DLBCL IkBa-CBG/CBR reporter, luminescence ratio (green luciferase fused to IkBa over red control in TMD8 lymphoma cells), 4 h; activity change, negative = inhibition: at 46.1 µM (top of the series) unless noted;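 for activity change, negative = inhibition: plate controls were basal doxycycline-induced cells for no effect and cells given 10 µM MG132 for full effect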
Outline: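 Concentration-response series (up to 46 uM) were applied to TMD8 dual-reporter cells for 4 h at 37C with doxycycline. Green/red ratio, after filter-overlap correction, defined %Activity; red signal alone was normalised to basal cells and zero luminescence.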
Potency is the fitted concentration of half-maximal effect.

Row | SMILES | activity change, negative = inhibition | Potency
1 | CC(=O)n1cc([C@@H]2C=C(C(=O)N3CCN(Cc4ccc5c(c4)OCO5)CC3)O[C@H](OCCCCO)C2)c2ccccc21 | inactive | 
2 | C=CCc1cc(OC)ccc1OCC(O)CN1CCN(c2ccc(OC)cc2)CC1 (stereo not given) | inconclusive: 9.76% | 
3 | CC(C)(C)Nc1c(N)c(=O)oc2ccccc12 |  | inconclusive: 20.6 µM [falling, partial curve]
4 | C/C=C/c1ccc(OCCCn2cncn2)c(OC)c1 | inconclusive: 7.9% | 
5 | CC(C)C[C@H](NC(=O)OC(C)(C)C)C(=O)N[C@@H](CO)[C@H](O)[C@@H]1C[C@@H]1C(=O)N(C)C | inactive | 
6 | O=C(N/N=C/c1ccccn1)c1ccc(Br)o1 | inactive | 
7 | C/C=N/NC(=O)c1cc(Br)ccc1O | inconclusive: 212% | 
8 | C=C[C@](C)(CC[C@@]1(C)C(C)CC(OC2OC(C)C(OC3OC(COC(C)=O)C(O)C(O)C3O)C(O)C2O)[C@@]2(C)C(C)=CCCC12)OC1OC(C)C(O[C@@H]2O[C@@H](C)C(O)C(O)[C@H]2O)C(O)C1O (stereo not given in full) | inconclusive: -0.313% | 
9 | CCOC(=O)C1CCCN(S(=O)(=O)c2ccc3c(c2)N(C)C(=O)CC(=O)N3C)C1 (stereo not given) | inactive | 
10 | C/C(=N\NC(=O)C(=O)Nc1cccc(Cl)c1C)c1ccncc1 | inactive | 
11 | COc1ccc2c(c1)CCc1c-2nc2ccccc2c1N1CCOCC1 | inactive | 
12 | COc1cccc(NC(=O)c2sc3nc(N4CCOCC4)c4c(c3c2N)CCCC4)c1 |  | inconclusive: 12.6 µM [falling, partial curve]
13 | COc1ccc(/C=C2\CCC(C3CCCC3)C2=O)c(OC)c1OC (stereo not given) | inconclusive: 2.68% | 
14 | Cc1ccc(NC(=O)NC(=O)CN2C(=O)NC3(CCc4ccccc43)C2=O)c(C)c1 (stereo not given) | inconclusive: 9.17% | 
15 | CCN(CC)CCCNC(=O)CNC(=O)c1nn(-c2ccc(OC)cc2)c(=O)c2ccccc12 | inconclusive: -4.69% | 
16 | O=c1oc2cc(S(=O)(=O)NCCCO)ccc2c2ccc(S(=O)(=O)NCCCO)cc12 | inactive | 
17 | CCOc1cc(NC(=O)c2ccco2)c(OCC)cc1NC(=O)c1cc(OC)c(OC)c(OC)c1 | inactive | 
18 | Cc1cc2c(c(/C=C/C(=O)c3ccccc3)c1)OC1(C=C2)Oc2ccccc2C(=O)N1C (stereo not given) | inactive | 
19 | O=C(Nc1cccc(S(=O)(=O)N2CCCCCC2)c1)c1ccc2c(c1)OCO2 | inconclusive: -6.53% | 
20 | CCCc1nnc(NC(=O)CCC(=O)N2CCN(CCOc3ccc(C)cc3)CC2)s1 | inconclusive: 17.9% | 
21 | COc1ccc(-c2nc3ccccc3c(C(=O)Nc3ccc(S(=O)(=O)Nc4cc(C)on4)cc3)c2C)cc1 | inconclusive: -1.3% | 
22 | CCN(CC)S(=O)(=O)c1ccc(Br)c(OC)c1 | inconclusive: 7.7% | 
23 | Cc1ccc(C)c(NC(=O)CCN2C(=O)[C@@H]3Cc4ccccc4CN3C2=O)c1 | inconclusive: -4.9% | 
24 | CCN1CCN(C(=O)c2cccc(OC3CCN(S(C)(=O)=O)CC3)c2)[C@@H](C)C1=O | inactive | 
25 | O=C(Nc1nc2ccccc2[nH]1)c1ccc(Cl)c([N+](=O)[O-])c1 | inconclusive: -3.39% | 

Row | SMILES | activity change, negative = inhibition | Potency
26 | O=S(=O)(NCc1ccco1)c1ccc(S(=O)(=O)N2CCCC2)cc1 |  | inconclusive: 35.5 µM [falling, single point]
27 | N#Cc1c(-c2cccs2)nc(SCc2ccc(Cl)cc2)[nH]c1=O | inconclusive: 22.5% | 
28 | CC(=O)CCC(=O)OCC(=O)Nc1ccc(SC(F)F)cc1 | inconclusive: -7.49% | 
29 | COc1ccc(-c2nc(SC(C)C(=O)NC3CC3)n[nH]2)cc1 (stereo not given) | inconclusive: -0.484% | 
30 | CCOC(=O)c1ccc(N=C2SC(C(=O)Nc3ccc(C(=O)O)cc3)CC(=O)N2Cc2cccs2)cc1 (stereo not given) |  | inconclusive: 35.5 µM [falling, single point]
31 | C[C@H](CO)N1C[C@H](C)[C@@H](CN(C)Cc2ccccc2)Oc2c(NC(=O)C3CCCCC3)cccc2C1=O | inconclusive: 0.0074% | 
32 | COc1cc(NC(=O)CSc2nc3nc(C)c(Cc4ccccc4)c(C)n3n2)cc(OC)c1OC | inactive | 
33 | CC(C)N(C(=O)[C@H]1C[C@H](CC(=O)NCCN2CCOCC2)C(=O)N2CCc3c([nH]c4cc(-c5ccco5)ccc34)[C@]12C)C(C)C |  | inconclusive: 25.9 µM [falling, partial curve, poor fit]
34 | CCOc1cccc(-c2c(C(=O)N/N=C/c3ccncc3)nnn2-c2nonc2N)c1 | inconclusive: 5.16% | 
35 | CC(C)c1nnc(NC(=O)C2CCCN2C(=O)Nc2ccccc2)s1 (stereo not given) | inconclusive: -0.848% | 
36 | CS(=O)(=O)Oc1ccc2c(c1)O/C(=C\C=C\c1ccccc1)C2=O |  | inconclusive: 4.47 µM [falling, partial curve, poor fit]
37 | COc1ccc(N)cc1-n1c(C)ccc1C | inconclusive: 15.8% | 
38 | Cc1cccc2sc(NC(=O)c3ccc(NS(=O)(=O)c4cccs4)cc3)nc12 | inconclusive: -17.2% | 
39 | Cc1ccc(/C=C/C(=O)NC2=NCCS2)cc1 | inconclusive: -16.8% | 
40 | CC1Cc2ccccc2N1C(=O)CSc1nnc(N)s1 (stereo not given) | inactive | 
41 | CCn1c(SCC(=O)NC(=O)NCc2ccco2)nc2sc(C)c(C)c2c1=O |  | inconclusive: 4.61 µM [falling, full curve, poor fit]
42 | COc1ccc(CCC(C)NCC2CCCCC2)cc1 (stereo not given) | inconclusive: 16.7% | 
43 | Cc1ccc(C(C)NC(=S)NCc2ccc(F)cc2)c(C)c1 (stereo not given) |  | inconclusive: 22.4 µM [falling, partial curve, poor fit]
44 | O=c1ccc2ccc(Oc3ccc([N+](=O)[O-])cc3[N+](=O)[O-])cc2o1 |  | inconclusive: 29.1 µM [cytotoxic, single point]
45 | CC(=O)c1ccc(-n2c(SCC(=O)c3c[nH]c4ccccc34)nc3ccccc3c2=O)cc1 | inactive | 
46 | O=[N+]([O-])c1nn(-c2ccc3c(c2)OCCO3)n(O)c1=NCCCO | inactive | 
47 | Cc1ccc(NC(=O)CN(C)C(=O)C(C)OC(=O)c2ccccc2NCCO)cc1 (stereo not given) |  | inconclusive: 8.2 µM [falling, partial curve, poor fit]
48 | Cc1ccc(-c2cc(C(=O)Nc3cc(C)on3)c3ccccc3n2)c(C)c1 |  | inconclusive: 11.6 µM [rising, partial curve, poor fit]
49 | CCC(C)n1c(SCc2ccc([N+](=O)[O-])cc2)nc2ccsc2c1=O (stereo not given) | inconclusive: 7.1% | 
50 | Cc1cc(C)n(CC(C)NC(=O)c2cc(COc3ccc(F)c(F)c3)on2)n1 (stereo not given) | inconclusive: 10.2% | 

An excerpt from above in order of SMILES length, falling.
Row | SMILES | activity change, negative = inhibition | Potency
38 | Cc1cccc2sc(NC(=O)c3ccc(NS(=O)(=O)c4cccs4)cc3)nc12 | inconclusive: -17.2% | 
46 | O=[N+]([O-])c1nn(-c2ccc3c(c2)OCCO3)n(O)c1=NCCCO | inactive | 
39 | Cc1ccc(/C=C/C(=O)NC2=NCCS2)cc1 | inconclusive: -16.8% | 

Further structures

Row | SMILES | activity change, negative = inhibition | Potency
51 | Cc1ccc(Sc2cc(C(=O)NCCCN(C)C)c3ccccc3n2)cc1 | inconclusive: -20% | 
52 | O=C(Cn1nc(Cc2cccnc2)c2ccccc2c1=O)Nc1ccccc1F |  | inconclusive: 1.41 µM [falling, partial curve, poor fit]
53 | CC(=O)c1cc(F)ccc1OCC(=O)Nc1ccc2c(c1)OCO2 | inactive | 
54 | Cc1cc(C)cc(NS(=O)(=O)c2ccc3[nH]cc(C(=O)NCc4ccco4)c(=O)c3c2)c1 | inconclusive: 0.92% | 
55 | CCSc1nnc(NC(=O)c2cc(-c3ccccc3O)n[nH]2)s1 |  | inconclusive: 11.2 µM [falling, partial curve, poor fit]
56 | Cc1nn(-c2ccccc2)c(C)c1NC(=O)COc1ccc2ccccc2c1 |  | inconclusive: 35.5 µM [falling, single point]
57 | O=C(O)c1ccc(CNC(=O)c2ccc(C(F)(F)F)cc2)cc1 | inconclusive: -3.16% | 
58 | O=C(COc1ccc(Br)cc1Br)NC(=O)NC1CCCC1 | inactive | 
59 | CNS(=O)(=O)c1cccc(C(=O)OC2CCOC2=O)c1 (stereo not given) | inactive | 
60 | Cc1nc2ccc(NC(=O)c3cccc(S(=O)(=O)N4CC(C)OC(C)C4)c3)cc2s1 (stereo not given) | inconclusive: -2.31% | 
61 | CCOc1ccccc1/C=N/Nc1cc(C)nc2ccc(C)cc12 | inconclusive: -0.624% | 
62 | Cc1ccnc(NC(=O)c2cc3ccccc3o2)c1 |  | inconclusive: 25.9 µM [rising, single point]
63 | COc1ccc(NC(=O)CCCC(=O)O)cc1Cl | inactive | 
64 | COc1cccc(C(=O)NC2CC3CCCC(C2)N3Cc2ccc(C)cc2)c1 (stereo not given) | inactive | 
65 | COc1ccc(OCC(=O)Nc2cccc(C(=O)Nc3ccccc3C(=O)O)c2)cc1 |  | inconclusive: 25.9 µM [falling, single point]
66 | Cc1ccc(/C=N/N2CCN(c3ccccn3)CC2)o1 | inconclusive: -8.88% | 
67 | CC(=O)O[C@]1(C(C)=O)CC[C@H]2[C@@H]3C=C(C)C4=CC(=O)CC[C@@H]4[C@H]3CC[C@@]21C | inactive | 
68 | O=C(CCc1ccccc1)NNC(=O)COc1ccc([N+](=O)[O-])cc1 | inconclusive: 3.28% | 
69 | Cc1cc(/C=C(\C#N)C(=O)OCC(=O)Nc2ccc(OC(F)F)cc2)c(C)n1CC(C)C | inconclusive: 18% | 
70 | CN(C)CC(CCCCC(CN(C)C)C(=O)c1ccccc1)C(=O)c1ccccc1 (stereo not given) |  | inconclusive: 15.8 µM [falling, partial curve, poor fit]
71 | Cc1c2cccn2cc[n+]1C | inactive | 
72 | CCc1ccc(S(=O)(=O)c2n[nH]n3c2nc(=O)c2ccccc23)cc1 |  | inconclusive: 18.4 µM [activator, single point]
73 | COc1ccc(-c2ccc(C(c3c(C)[nH][nH]c3=O)c3c(C)[nH][nH]c3=O)o2)c([N+](=O)[O-])c1 |  | inconclusive: 35.5 µM [rising, single point]
74 | COC(=O)c1ccc(C2/C(=C(/O)c3ccc(OC)cc3)C(=O)C(=O)N2c2cc(C)on2)cc1 (stereo not given) | inconclusive: -1.35% | 
75 | CCOC(=O)N1CCN(CC(=O)Nc2c(C(=O)OC)[nH]c3ccccc23)CC1 | inconclusive: 3.25% | 
